Measured values reported in publication PMC13321232.
These are yes or no findings as the source states them, for the method shown. In cells and extracts the contact can be indirect. Some binding calls cover weakened binding; strength is not graded here. Where a sequence is shown, tags or fusion partners need not be part of it.

Key:
[1] = molecular target: T1, ER-HA (Arabidopsis thaliana) (UniProt Q42371); assay: co-IP; FLAG- and HA-tagged proteins coinfiltrated into Nicotiana leaves; 10 µM MG132 for 6 h; lysis in 50 mM Tris-HCl pH 7.6, 150 mM NaCl, 1% NP-40, 0.1% SDS; anti-HA or anti-FLAG (anti-DYKDDDDK) magnetic beads, 4 °C; western blot
T1 sequence: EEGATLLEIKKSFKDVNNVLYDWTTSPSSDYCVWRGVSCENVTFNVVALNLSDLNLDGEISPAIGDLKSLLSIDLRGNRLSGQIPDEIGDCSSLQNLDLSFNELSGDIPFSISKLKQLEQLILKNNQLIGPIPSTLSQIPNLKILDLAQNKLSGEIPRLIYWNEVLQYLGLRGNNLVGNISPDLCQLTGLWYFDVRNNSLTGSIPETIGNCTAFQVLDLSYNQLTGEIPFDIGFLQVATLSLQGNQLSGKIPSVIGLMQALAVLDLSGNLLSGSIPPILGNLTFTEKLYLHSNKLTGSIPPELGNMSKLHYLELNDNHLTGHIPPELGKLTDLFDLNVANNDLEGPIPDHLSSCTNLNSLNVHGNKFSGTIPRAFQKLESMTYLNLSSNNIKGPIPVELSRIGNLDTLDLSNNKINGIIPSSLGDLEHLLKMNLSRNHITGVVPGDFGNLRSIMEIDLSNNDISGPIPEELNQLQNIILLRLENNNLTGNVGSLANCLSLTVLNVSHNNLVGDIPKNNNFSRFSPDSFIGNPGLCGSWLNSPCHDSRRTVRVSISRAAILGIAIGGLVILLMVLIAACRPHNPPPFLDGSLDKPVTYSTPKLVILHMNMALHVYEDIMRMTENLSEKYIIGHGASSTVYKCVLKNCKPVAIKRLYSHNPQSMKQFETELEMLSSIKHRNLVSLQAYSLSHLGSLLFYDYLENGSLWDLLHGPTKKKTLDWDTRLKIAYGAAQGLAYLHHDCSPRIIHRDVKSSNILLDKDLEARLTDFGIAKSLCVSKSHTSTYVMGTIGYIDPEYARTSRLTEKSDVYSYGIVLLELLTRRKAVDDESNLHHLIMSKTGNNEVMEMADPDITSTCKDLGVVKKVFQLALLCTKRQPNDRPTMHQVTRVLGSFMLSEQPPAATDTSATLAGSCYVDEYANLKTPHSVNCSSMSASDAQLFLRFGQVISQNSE

[2] = molecular target: T2, ERL2-HA (Arabidopsis thaliana) (UniProt Q6XAT2); assay: as above
T2 sequence: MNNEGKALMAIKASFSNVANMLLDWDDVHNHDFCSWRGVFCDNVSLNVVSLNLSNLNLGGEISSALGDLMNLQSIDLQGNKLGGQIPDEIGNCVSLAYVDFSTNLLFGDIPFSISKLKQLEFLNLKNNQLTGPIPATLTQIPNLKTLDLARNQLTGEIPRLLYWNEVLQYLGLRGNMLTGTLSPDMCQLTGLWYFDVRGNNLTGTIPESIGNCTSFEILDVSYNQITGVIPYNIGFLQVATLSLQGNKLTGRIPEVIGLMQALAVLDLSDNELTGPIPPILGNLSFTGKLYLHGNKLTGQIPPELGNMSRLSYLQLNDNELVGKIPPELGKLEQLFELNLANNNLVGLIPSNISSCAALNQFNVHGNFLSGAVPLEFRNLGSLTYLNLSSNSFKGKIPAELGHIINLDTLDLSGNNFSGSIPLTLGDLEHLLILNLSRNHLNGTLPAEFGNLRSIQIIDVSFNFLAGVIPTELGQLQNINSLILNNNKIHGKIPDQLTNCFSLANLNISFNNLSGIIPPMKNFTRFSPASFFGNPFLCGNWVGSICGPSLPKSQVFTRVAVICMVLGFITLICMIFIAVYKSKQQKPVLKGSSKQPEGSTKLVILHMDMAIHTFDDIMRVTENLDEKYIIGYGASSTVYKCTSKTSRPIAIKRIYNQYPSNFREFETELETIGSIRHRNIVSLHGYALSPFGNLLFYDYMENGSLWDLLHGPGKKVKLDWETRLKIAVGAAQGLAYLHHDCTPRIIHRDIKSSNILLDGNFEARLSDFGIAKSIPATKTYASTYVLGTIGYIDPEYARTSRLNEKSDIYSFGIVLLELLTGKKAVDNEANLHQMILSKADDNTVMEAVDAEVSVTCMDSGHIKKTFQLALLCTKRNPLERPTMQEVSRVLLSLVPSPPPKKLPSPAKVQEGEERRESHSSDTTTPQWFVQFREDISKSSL

[3] = molecular target: T1, ER-HA (Arabidopsis thaliana); assay: co-IP; FLAG- and HA-tagged proteins cotransfected into Arabidopsis protoplasts from root cell suspension cultures; 10 µM MG132 for 6 h; lysis in 50 mM Tris-HCl pH 7.6, 150 mM NaCl, 1% NP-40, 0.1% SDS; anti-FLAG (anti-DYKDDDDK) or anti-HA magnetic beads, 4 °C; western blot
[4] = molecular target: T3, ERL1-HA (Arabidopsis thaliana) (UniProt C0LGW6); assay: as above
T3 sequence: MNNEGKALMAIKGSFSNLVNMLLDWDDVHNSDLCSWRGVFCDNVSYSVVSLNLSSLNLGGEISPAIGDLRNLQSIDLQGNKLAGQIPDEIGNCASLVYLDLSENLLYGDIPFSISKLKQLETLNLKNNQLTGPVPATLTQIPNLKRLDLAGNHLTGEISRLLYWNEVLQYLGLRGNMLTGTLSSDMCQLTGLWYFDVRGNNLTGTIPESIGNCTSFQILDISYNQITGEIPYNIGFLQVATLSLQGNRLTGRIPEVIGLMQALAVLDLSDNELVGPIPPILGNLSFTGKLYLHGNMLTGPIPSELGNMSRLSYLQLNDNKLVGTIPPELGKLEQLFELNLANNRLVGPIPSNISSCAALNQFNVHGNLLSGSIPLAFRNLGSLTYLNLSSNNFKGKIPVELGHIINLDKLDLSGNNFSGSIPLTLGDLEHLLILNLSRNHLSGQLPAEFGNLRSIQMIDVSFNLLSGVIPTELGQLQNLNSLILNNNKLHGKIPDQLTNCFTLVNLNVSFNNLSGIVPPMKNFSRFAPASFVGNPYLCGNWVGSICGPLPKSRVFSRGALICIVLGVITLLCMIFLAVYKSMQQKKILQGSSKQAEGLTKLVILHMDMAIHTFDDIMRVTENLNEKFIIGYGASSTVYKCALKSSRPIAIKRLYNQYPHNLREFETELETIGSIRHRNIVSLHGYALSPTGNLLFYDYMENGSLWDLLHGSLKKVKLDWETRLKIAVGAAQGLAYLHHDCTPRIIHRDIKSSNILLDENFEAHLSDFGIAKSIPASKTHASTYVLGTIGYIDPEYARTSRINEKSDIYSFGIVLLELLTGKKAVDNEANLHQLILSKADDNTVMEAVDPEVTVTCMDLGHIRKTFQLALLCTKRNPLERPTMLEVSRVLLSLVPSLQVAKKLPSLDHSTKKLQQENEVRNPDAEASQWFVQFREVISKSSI

[5] = molecular target: T2, ERL2-HA (Arabidopsis thaliana); assay: as above

binding [1]: binds
binding [2]: binds
binding [3]: binds
binding [4]: no binding
binding [5]: binds
B1: PXY-FLAG (plant construct) (receptor, UniProt Q9FII5 30-1041)
chain: LKFSPQLLSLLSLKTSLSGPPSAFQDWKVPVNGQNDAVWCSWSGVVCDNVTAQVISLDLSHRNLSGRIPIQIRYLSSLLYLNLSGNSLEGSFPTSIFDLTKLTTLDISRNSFDSSFPPGISKLKFLKVFNAFSNNFEGLLPSDVSRLRFLEELNFGGSYFEGEIPAAYGGLQRLKFIHLAGNVLGGKLPPRLGLLTELQHMEIGYNHFNGNIPSEFALLSNLKYFDVSNCSLSGSLPQELGNLSNLETLFLFQNGFTGEIPESYSNLKSLKLLDFSSNQLSGSIPSGFSTLKNLTWLSLISNNLSGEVPEGIGELPELTTLFLWNNNFTGVLPHKLGSNGKLETMDVSNNSFTGTIPSSLCHGNKLYKLILFSNMFEGELPKSLTRCESLWRFRSQNNRLNGTIPIGFGSLRNLTFVDLSNNRFTDQIPADFATAPVLQYLNLSTNFFHRKLPENIWKAPNLQIFSASFSNLIGEIPNYVGCKSFYRIELQGNSLNGTIPWDIGHCEKLLCLNLSQNHLNGIIPWEISTLPSIADVDLSHNLLTGTIPSDFGSSKTITTFNVSYNQLIGPIPSGSFAHLNPSFFSSNEGLCGDLVGKPCNSDRFNAGNADIDGHHKEERPKKTAGAIVWILAAAIGVGFFVLVAATRCFQKSYGNRVDGGGRNGGDIGPWKLTAFQRLNFTADDVVECLSKTDNILGMGSTGTVYKAEMPNGEIIAVKKLWGKNKENGKIRRRKSGVLAEVDVLGNVRHRNIVRLLGCCTNRDCTMLLYEYMPNGSLDDLLHGGDKTMTAAAEWTALYQIAIGVAQGICYLHHDCDPVIVHRDLKPSNILLDADFEARVADFGVAKLIQTDESMSVVAGSYGYIAPEYAYTLQVDKKSDIYSYGVILLEIITGKRSVEPEFGEGNSIVDWVRSKLKTKEDVEEVLDKSMGRSCSLIREEMKQMLRIALLCTSRSPTDRPPMRDVLLILQEAKPKRKTVGDNVIVVGDVNDVNFEDVCSVDVGHDVKCQRIGV
